Laboratory results: publication doi:10.1101/870998
Substitutions are numbered along the chain they refer to. Like-named read-outs stand apart in the source and are kept apart here. Results are given in words; binding and its absence hold for the method and conditions named. Binding seen in cells or lysates may run through a third protein. For part of these data: A result given as binding can be weak or reduced; the word gives no strength. Tags and fused reporters may be left off the sequences shown.

What was measured:
Experiment in all cases: co-IP
[1] = target: T1, GFP-iASPP SH3 domain alone (UniProt Q8WUF5)
T1 sequence: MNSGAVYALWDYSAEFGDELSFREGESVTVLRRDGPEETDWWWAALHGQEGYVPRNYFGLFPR

GFP-iASPP-RARA = target: T2, GFP-iASPP-RARA (UniProt Q8WUF5)
T2 sequence: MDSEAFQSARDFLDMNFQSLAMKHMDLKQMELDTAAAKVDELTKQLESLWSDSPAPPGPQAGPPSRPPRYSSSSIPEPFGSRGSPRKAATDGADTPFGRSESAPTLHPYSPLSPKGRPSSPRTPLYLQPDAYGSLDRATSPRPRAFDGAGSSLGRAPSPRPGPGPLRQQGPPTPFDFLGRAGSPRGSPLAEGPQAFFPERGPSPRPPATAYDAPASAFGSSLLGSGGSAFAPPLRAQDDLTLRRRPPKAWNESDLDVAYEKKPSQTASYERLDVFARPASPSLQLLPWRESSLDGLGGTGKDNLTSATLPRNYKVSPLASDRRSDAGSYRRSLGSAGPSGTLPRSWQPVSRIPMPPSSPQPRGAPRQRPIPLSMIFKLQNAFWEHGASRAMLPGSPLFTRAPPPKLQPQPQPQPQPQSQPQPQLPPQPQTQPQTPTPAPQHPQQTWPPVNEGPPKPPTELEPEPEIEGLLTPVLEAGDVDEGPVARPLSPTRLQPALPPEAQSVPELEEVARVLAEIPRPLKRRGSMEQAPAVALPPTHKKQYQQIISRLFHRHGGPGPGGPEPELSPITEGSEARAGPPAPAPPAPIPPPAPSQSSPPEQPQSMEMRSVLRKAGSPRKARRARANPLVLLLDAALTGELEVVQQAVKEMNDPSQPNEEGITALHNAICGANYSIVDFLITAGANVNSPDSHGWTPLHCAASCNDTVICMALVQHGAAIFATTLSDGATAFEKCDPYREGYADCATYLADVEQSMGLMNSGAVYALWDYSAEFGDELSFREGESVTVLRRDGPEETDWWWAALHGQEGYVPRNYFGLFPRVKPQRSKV

[2] = target: T3, GFP-iASPP C-terminal region (Cter, 600-828) (UniProt Q8WUF5)
T3 sequence: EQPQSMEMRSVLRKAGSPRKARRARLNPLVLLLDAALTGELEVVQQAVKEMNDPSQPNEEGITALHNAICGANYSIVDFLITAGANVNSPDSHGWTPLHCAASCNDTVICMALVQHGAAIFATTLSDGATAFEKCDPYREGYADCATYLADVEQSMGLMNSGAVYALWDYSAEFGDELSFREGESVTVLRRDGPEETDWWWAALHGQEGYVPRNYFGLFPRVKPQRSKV

GFP-iASPP (wild type) = target: T4, GFP-iASPP (wild type) (UniProt Q8WUF5)
T4 sequence: T2 sequence with A625L

GFP-iASPP 1-599 = target: T5, GFP-iASPP 1-599 (UniProt Q8WUF5)
T5 sequence: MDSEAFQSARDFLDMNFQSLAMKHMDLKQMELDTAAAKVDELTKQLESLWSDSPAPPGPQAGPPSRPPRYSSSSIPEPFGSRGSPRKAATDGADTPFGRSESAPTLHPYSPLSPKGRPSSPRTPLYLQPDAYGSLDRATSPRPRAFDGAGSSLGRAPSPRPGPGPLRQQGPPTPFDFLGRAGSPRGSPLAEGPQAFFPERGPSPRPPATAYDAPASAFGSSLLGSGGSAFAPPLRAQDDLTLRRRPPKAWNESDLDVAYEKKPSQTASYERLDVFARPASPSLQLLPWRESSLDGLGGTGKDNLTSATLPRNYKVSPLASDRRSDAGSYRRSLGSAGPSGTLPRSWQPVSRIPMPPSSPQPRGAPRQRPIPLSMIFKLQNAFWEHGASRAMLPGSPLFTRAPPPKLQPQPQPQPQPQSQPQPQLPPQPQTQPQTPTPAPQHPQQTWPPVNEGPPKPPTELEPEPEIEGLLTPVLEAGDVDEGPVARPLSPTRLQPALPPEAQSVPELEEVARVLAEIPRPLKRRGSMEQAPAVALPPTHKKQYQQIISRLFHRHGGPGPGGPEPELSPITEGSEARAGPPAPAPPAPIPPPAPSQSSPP

[3] = target: T6, GFP-iASPP Ank-SH3 (629-828) (UniProt Q8WUF5)
T6 sequence: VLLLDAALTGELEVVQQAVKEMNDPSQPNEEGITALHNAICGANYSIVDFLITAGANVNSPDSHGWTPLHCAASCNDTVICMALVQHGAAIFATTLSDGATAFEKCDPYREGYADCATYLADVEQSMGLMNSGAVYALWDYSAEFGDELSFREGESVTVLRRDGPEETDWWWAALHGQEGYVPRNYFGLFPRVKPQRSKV

[4] = target: T3, GFP-iASPP C-terminal region (Cter, 600-828); remark: listed apart in the source
GFP-iASPP 1-290 = target: T7, GFP-iASPP 1-290 (UniProt Q8WUF5)
T7 sequence: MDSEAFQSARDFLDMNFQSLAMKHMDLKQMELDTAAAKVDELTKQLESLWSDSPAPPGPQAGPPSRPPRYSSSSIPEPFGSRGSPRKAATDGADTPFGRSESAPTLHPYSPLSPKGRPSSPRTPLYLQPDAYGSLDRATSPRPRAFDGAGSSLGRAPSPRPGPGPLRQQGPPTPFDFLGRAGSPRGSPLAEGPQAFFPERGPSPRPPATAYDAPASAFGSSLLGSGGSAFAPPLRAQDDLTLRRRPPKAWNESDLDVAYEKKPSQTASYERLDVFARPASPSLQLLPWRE

GFP-iASPP 1-628 = target: T8, GFP-iASPP 1-628 (UniProt Q8WUF5)
T8 sequence: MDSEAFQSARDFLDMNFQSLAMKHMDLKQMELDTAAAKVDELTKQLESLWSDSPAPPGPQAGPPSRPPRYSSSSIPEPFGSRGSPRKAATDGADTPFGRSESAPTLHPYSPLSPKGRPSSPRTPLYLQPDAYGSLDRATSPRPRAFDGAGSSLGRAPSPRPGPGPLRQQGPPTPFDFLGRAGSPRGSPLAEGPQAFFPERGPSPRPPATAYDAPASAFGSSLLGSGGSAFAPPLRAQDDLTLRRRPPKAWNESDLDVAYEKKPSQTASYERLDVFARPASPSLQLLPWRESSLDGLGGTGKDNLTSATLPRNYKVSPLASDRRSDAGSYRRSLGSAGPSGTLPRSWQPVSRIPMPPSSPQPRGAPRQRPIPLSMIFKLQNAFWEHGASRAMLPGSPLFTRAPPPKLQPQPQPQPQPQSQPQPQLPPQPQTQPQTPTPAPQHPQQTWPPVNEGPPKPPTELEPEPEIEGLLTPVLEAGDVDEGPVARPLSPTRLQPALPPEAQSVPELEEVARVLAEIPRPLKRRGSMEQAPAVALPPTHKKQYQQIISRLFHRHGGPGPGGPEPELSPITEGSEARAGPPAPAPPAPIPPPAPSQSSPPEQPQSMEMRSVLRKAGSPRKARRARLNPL

- binding [1]: no binding
- binding (GFP-iASPP-RARA): no binding
- binding [2]: binds
- binding (GFP-iASPP (wild type)): binds
- binding (GFP-iASPP 1-599): no binding
- binding [3]: binds weakly
- binding [4]: binds
- binding (GFP-iASPP 1-290): no binding
- binding (GFP-iASPP 1-628): no binding
Substance: PP1 (endogenous) (enzyme)
